Screen size: about 340,000 compounds; about 170 (0.05%) were called active. The inconclusive results got no clear call from the source; some entries with a clear call stand among them for comparison. The call rests on the fitted dose curve; in most records, active means well fitted inhibition curve with a large enough effect in the signal ratio, with a control signal flat (not every such curve was filed as active); inconclusive means small, poorly fitted or top-dose-only effect, or effect the other way, or a change in a side signal; inactive means flat fitted curve, though single readings scatter; the % refers to the signal ratio. Potencies beside an inconclusive call are fits to weak or partial responses and may not hold up.
test: qHTS Assay to Find Inhibitors of Chronic Active B-Cell Receptor Signaling; conditions: ABC-DLBCL IkBa-CBG/CBR reporter, luminescence ratio (green luciferase fused to IkBa over red control in TMD8 lymphoma cells), 4 h; activity change, negative = inhibition: at 46.1 µM (top of the series) unless noted;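 on activity change, negative = inhibition: plate controls were basal doxycycline-induced cells for no effect and cells given 10 µM MG132 for full effect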
How it was run: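 Concentration-response series (up to 46 uM) were applied to TMD8 dual-reporter cells for 4 h at 37C with doxycycline. Green/red ratio, after filter-overlap correction, defined %Activity; red signal alone was normalised to basal cells and zero luminescence.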
Potency means the concentration at half of the fitted maximal effect.

| SMILES | activity change, negative = inhibition | Potency |
| --- | --- | --- |
| Cc1nc(N2CCN(c3ccccn3)CC2)c2c(C)c(C(=O)Nc3c(F)cc(F)cc3Br)sc2n1 | inconclusive: 13.9% | – |
| Cc1ccc(C2c3c(oc4ccccc4c3=O)C(=O)N2c2nncs2)cc1 (configuration not stated) | inconclusive: 5.4% | – |
| O=C1C=C(/C=C/c2ccccc2)C[C@@H](c2ccc(F)cc2)C1 | inconclusive: 12.2% | – |
| CCSc1nnc2c(n1)OC(c1ccc(OCC(=O)O)cc1)Nc1ccccc1-2 (configuration not stated) | – | inconclusive: 20 µM [falling, partial curve, poor fit] |
| CC1CC(Nc2ccccc2N)=CC(=O)O1 (configuration not stated) | – | inconclusive: 29.1 µM [activator, single point] |
| O=C(C1=C[C@@H](c2ccc(Br)cc2)C[C@@H](OCCCCO)O1)N1CCN(Cc2ccccc2)CC1 | inactive: -13.1% | – |
| COCCN(C(=O)CSc1nnc(-c2ccccc2OC)o1)c1c(N)n(CC(C)C)c(=O)[nH]c1=O | inconclusive: -2.86% | – |
| CC(=O)N1CCOc2ccc(S(=O)(=O)NC[C@H]3O[C@@H](n4cnc5c(N)ncnc54)[C@H](O)[C@@H]3O)cc21 | inconclusive: 0.574% | – |
| COc1ccc(C(=O)CCN2CCN(c3ccccc3F)CC2)cc1 | inconclusive: 7.53% | – |
| COc1cccc(-c2nc(C(N)=O)c3[nH]c(=O)n(-c4ccccc4)c3n2)c1OC | inconclusive: 8.89% | – |
| CC1(C)Cc2c(C#N)c(NCCN3CCOCC3)nc(-c3ccccc3)c2CO1 | inactive: 0.262% | – |
| CCOC(=O)C1=C(O)/C(=C/c2cccc(OC)c2O)N=C1C | inactive: 0.601% | – |
| COc1cc(OC)cc(C(=O)OCC(=O)c2ccc(S(=O)(=O)N3CCCCC3)cc2)c1 | inconclusive: 1.4% | – |
| CCCC(=O)N/C(N)=N/c1nc2ccccc2o1 | – | inconclusive: 35.5 µM [rising, single point] |
| O=C(CN1C(=O)/C(=C/c2ccccc2F)Sc2ccccc21)NCc1cccnc1 | – | inconclusive: 35.5 µM [falling, partial curve, poor fit] |
| CC1(C)CC(=O)C(CS(=O)(=O)c2ccccc2)=C(O)C1 | inconclusive: 11.1% | – |
| COc1ccc(Cl)cc1Nc1nc(-c2sc(NC(=O)C(C)(C)C)nc2C)cs1 | inconclusive: -5.55% | – |
| CCOC(=O)c1c(NC(=O)CSc2nnnn2-c2ccccc2OCC)sc2c1CC(C)(C)NC2(C)C | inactive: -19.7% | – |
| CC(=O)c1ccc(OCc2ccccc2)c(C)c1O | inconclusive: 2.67% | – |
| Cc1ccc(OCCN2CCNCC2)c([N+](=O)[O-])c1 | inactive: 1.09% | – |
| Cc1nnc(SCc2cccs2)[nH]c1=O | – | inconclusive: 32.6 µM [falling, partial curve, poor fit] |
| Cc1cccc(OCC(=O)NNc2c3ccccc3nc3ccccc23)c1 | – | inconclusive: 35.5 µM [falling, single point] |
| Oc1c(CN2CCN(c3ccccc3)CC2)cc(Br)c2cccnc12 | – | inconclusive: 3.16 µM [falling, single point] |
| C=CCC1CCCC(=O)N2CCCC12 (configuration not stated) | inactive: -1.06% | – |
| COC(=O)c1ccc(NC(=O)CSc2nn3c(=O)c(C)nnc3s2)cc1 | inconclusive: 4.71% | – |
| O=C(COc1ccccc1[N+](=O)[O-])N/N=C/c1cccc(OC(=O)c2ccc3c(c2)OCO3)c1 | – | inconclusive: 9.2 µM [falling, partial curve, poor fit] |

| SMILES | activity change, negative = inhibition | Potency |
| --- | --- | --- |
| CC1=C(C(=O)Nc2cc(C(=O)N3CCN(c4cccc(C)c4)C(C)C3)ccc2C)SCCO1 (configuration not stated) | inactive: 18.9% | – |
| C=CCN(c1ccccc1)S(=O)(=O)c1cccc(C(=O)NC2CCN(Cc3ccccc3)CC2)c1 | inactive: -6.71% | – |
| CCC(c1nnnn1CCc1ccccc1)N1CCN(C(=O)c2ccco2)CC1 (configuration not stated) | inconclusive: 5.22% | – |
| Cc1cccc2sc(N(Cc3cccnc3)C(=O)Cc3ccccc3)nc12 | – | inconclusive: 17.8 µM [rising, partial curve, poor fit] |
| CC(=O)N1c2ccccc2C2(C)C(C1(C)C)C2(Cl)Cl (configuration not stated) | inactive: -3.08% | – |
| COc1ccc(-n2c3c(c(=O)[nH]c2=O)C(NS(=O)(=O)c2ccc(Cl)cc2)(C(F)(F)F)C(=O)N3)cc1 (configuration not stated) | inactive: -3.53% | – |
| O=C(COC(=O)Cc1cccc(C(F)(F)F)c1)Nc1ccccc1 | – | inconclusive: 29.1 µM [falling, single point] |
| CCOC(=O)c1c(NC(=O)c2ccccc2Br)sc2c1CCc1ccccc1-2 | – | inconclusive: 14.6 µM [rising, partial curve] |
| Cc1cc(C)n(/N=C/c2cc([N+](=O)[O-])ccc2O)c(=O)c1 | inactive: -7.23% | – |
| O=C(Nc1ccc(F)cc1)C1CC2CCC1C2 (configuration not stated) | inactive: -1.76% | – |
| CC(C)C(C)NC(=O)COc1ccc(-c2ccccc2)cc1 (configuration not stated) | inconclusive: 15.1% | – |
| COc1cc(/C=C/C(=O)N2CCCC2)cc(OC)c1OC | – | inconclusive: 17.8 µM [falling, single point] |
| CC1=NN(c2ccc(C)cc2)C(=O)/C1=C\C=C\c1ccccc1 | inactive: -8.11% | – |
| CCCCCCc1cc2cc(C(N)=O)c(=N)oc2cc1O | – | inconclusive: 16.4 µM [rising, partial curve, poor fit] |
| CSc1cccc(N2C(=O)N(CC(=O)NCc3ccccc3Cl)c3ccccc3S2(=O)=O)c1 | inactive: -13.3% | – |
| Cc1ccc(OCCCN2C(=O)C(=O)c3cccc(C)c32)cc1 | inactive: 9.04% | – |
| CCOC(=O)Cc1csc(NC(=O)c2ccc(Br)s2)n1 | inactive: -1.08% | – |
| O=C(Nc1cc(-c2nc3ccccc3s2)ccc1Cl)c1ccc2c(c1)OCO2 | inconclusive: 5.57% | – |
| COc1ccccc1-n1ncc2c(=O)[nH]c(SCC(=O)Nc3cccc(F)c3)nc21 | – | inconclusive: 0.398 µM [rising, full curve, poor fit] |
| CCN(CC)S(=O)(=O)c1cccc(C(=O)Nc2ccc(Cl)cn2)c1 | – | inconclusive: 29.1 µM [rising, partial curve, poor fit] |
| COc1cccc(C(=O)COC(=O)c2cccs2)c1 | inactive: 5.39% | – |
| Cc1ccc(C(=O)O)cc1NC(=S)NC(=O)c1ccc(COc2ccccc2)cc1 | inconclusive: 5.43% | – |
| CC(C)C[C@H](NC(=O)N1CCn2c1nc1ccccc12)C(=O)N1CCCCC1 | inactive: 11.3% | – |
| Nc1nc2ccc([N+](=O)[O-])c(N)c2s1 | inconclusive: -23% | – |
| N#Cc1ccccc1/C=N/Nc1nc(-c2ccccc2)c2cc(Cl)ccc2n1 | inconclusive: -0.466% | – |
| CCc1cccc(CC)c1-n1c(SCn2nnc3ccccc3c2=O)nnc1-c1cccnc1 | – | inconclusive: 0.82 µM [rising, partial curve] |

| SMILES | activity change, negative = inhibition | Potency |
| --- | --- | --- |
| CC(=O)Nc1cccc(C(=O)OCC(=O)NC(C)c2ccc(F)cc2)c1 (configuration not stated) | inconclusive: 5.19% | – |
| Cc1ccc(Cn2cnc3ccccc32)cc1 | inconclusive: 0.0639% | – |
| O=C(c1cc(Cl)cc(Cl)c1)N1CCC(=O)N(C(COCc2ccccc2)Cc2ccccc2)CC1 (configuration not stated) | inconclusive: -20.5% | – |
| O=C(O)CC12CC3CC(C1)CC(n1ncc(NCc4ccco4)c(Cl)c1=O)(C3)C2 | inconclusive: 4.57% | – |
| O=C(Nc1nc2cc3c(cc2s1)OCO3)c1ccc(N2C(=O)CCC2=O)cc1 | inconclusive: 13.3% | – |
| CCCc1ccc(OCc2ccc(C(=O)N3CCN(c4ccccn4)CC3)o2)c(OC)c1 | – | inconclusive: 23.1 µM [falling, single point] |
| COc1ccc(CNC(=O)COC(=O)c2ccc(S(=O)(=O)N3CCCCC3)cc2)cc1 | inactive: 11.4% | – |
| CC(C)(C)c1ccc(OCC(=O)N/N=C/c2ccsc2)cc1 | – | inconclusive: 18.4 µM [falling, partial curve] |
| Cc1ccc(N(CC(=O)N2CCN(c3ccc(F)cc3)CC2)S(=O)(=O)c2c(C)nn(C)c2C)cc1 | inactive: -0.38% | – |
| O=C(NCc1ccccc1Cl)c1cnc2ccccc2n1 | inconclusive: 1.14% | – |
| CC(C)(C)c1cc[n+](C2=C([O-])c3ccccc3C(=O)/C2=N\S(=O)(=O)c2ccccc2)cc1 | – | inconclusive: 8.91 µM [rising, partial curve, poor fit] |
| COc1ccc(-c2csc(NC(=O)CCCc3nc4ccccc4c(=O)[nH]3)n2)cc1OC | – | inconclusive: 20.6 µM [falling, partial curve] |
| CC(c1ccc(O)cc1)(c1ccc(O)cc1)c1ccc(CCBr)cc1 | – | inconclusive: 17.8 µM [falling, single point] |
| CC(=O)Nc1ccc(OCC(O)Cn2nc(C)nc2C)cc1 (configuration not stated) | – | inconclusive: 4.61 µM [falling, partial curve, poor fit] |
| CCOC(=O)c1c(C)nc2sc3c(=O)n(-c4ccc(OC)cc4)cnc3c2c1-c1ccc(OC)cc1 | inactive: 9.27% | – |
| CCOC(=O)CC(=O)CSc1nc2ccccc2c(=O)n1CCc1ccccc1 | inconclusive: 22.7% | – |
| OCC1(Cc2ccccc2)CCN(C2CCN(c3ccc(F)c(F)c3)CC2)CC1 | – | inconclusive: 10 µM [falling, partial curve, poor fit] |
| Cc1ccc(OCc2nnc(SCc3ccc(C#N)cc3)n2-c2ccc(C)cc2)cc1 | inconclusive: 19.4% | – |
| CC(C)n1nc(C(=O)NC2CCCCCC2)c2ccccc2c1=O | – | inconclusive: 18.4 µM [falling, partial curve] |
| Cc1cc(C)n(-c2ncnc3sc(C)c(C)c23)n1 | inconclusive: 0.452% | – |
| CC(=O)Nc1cccc(NC(=O)C2(c3cccs3)CCOCC2)c1 | inactive: 0.587% | – |
| CCCCOc1ccc(N(CC(=O)NC2CCCCC2)C(=O)CCC(=O)Nc2ccccn2)cc1 | inactive: 7.59% | – |
| C=C(C)Cn1c(CCNC(=O)C(C)(C)C)nc2ccccc21 | inconclusive: 11.1% | – |
| CCCn1c(NC(=O)c2ccc(Cl)c(S(=O)(=O)N3CCCC3)c2)nc2ccccc21 | – | inconclusive: 28.2 µM [falling, partial curve, poor fit] |
| Cc1cc2cc(CNC(=O)Nc3cccc(Cl)c3)ccc2n1C | inconclusive: 18.1% | – |

Complete entries from above. Order of values: activity change, negative = inhibition | Potency
`Cc1ccc(OCc2nnc(SCc3ccc(C#N)cc3)n2-c2ccc(C)cc2)cc1` in the list: inconclusive: 19.4% | –
`CCCCOc1ccc(N(CC(=O)NC2CCCCC2)C(=O)CCC(=O)Nc2ccccn2)cc1` in the list: inactive: 7.59% | –
`COc1ccc(-c2csc(NC(=O)CCCc3nc4ccccc4c(=O)[nH]3)n2)cc1OC` in the list: – | inconclusive: 20.6 µM [falling, partial curve]
`CC(C)(C)c1ccc(OCC(=O)N/N=C/c2ccsc2)cc1` in the list: – | inconclusive: 18.4 µM [falling, partial curve]

Reference: PubChem BioAssay AID493014 (National Center for Advancing Translational Sciences (NCATS), 2011)
